Assay results: the supplement of paper PMC8728848
The list shows a part of the results.

Key:
Experiment in all cases: glycan array binding signal (z-score within array); higher = stronger binding
Details in all cases: glycan notation: IUPAC condensed, linker removed
Gal(a1-3)Gal(b1-3)GlcNAc = biological target: Gal(a1-3)Gal(b1-3)GlcNAc
In short: (§1)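 The Consortium for Functional Glycomics database supplied 3228 glycan arrays, of which those lacking an available protein sequence were dropped. The binding signal, a within-array Z-score, was averaged across arrays of the same protein sequence and across linkers. Negative scores can be read as non-binding.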

[1] = biological target: Gal(a1-3)Gal(b1-3)GlcNAc(b1-2)Man
In short: as §1

[2] = biological target: Gal(a1-3)Gal(b1-3)GlcNAc(b1-2)Man(a1-3)[Gal(a1-3)Gal(b1-3)GlcNAc(b1-2)Man(a1-6)]Man(b1-4)GlcNAc(b1-4)GlcNAc
In short: as §1

[3] = biological target: Gal(a1-3)Gal(b1-3)GlcNAc(b1-3)GalNAc
In short: as §1

[4] = biological target: Gal(a1-3)Gal(b1-3)GlcNAc(b1-6)GalNAc
In short: as §1

[5] = biological target: Gal(a1-3)Gal(b1-3)[Fuc(a1-4)]GlcNAc(b1-2)Man(a1-3)[Gal(a1-3)Gal(b1-3)[Fuc(a1-4)]GlcNAc(b1-2)Man(a1-6)]Man(b1-4)GlcNAc(b1-4)GlcNAc
In short: as §1

Gal(a1-3)Gal(b1-4)Glc = biological target: Gal(a1-3)Gal(b1-4)Glc
In short: as §1

Gal(a1-3)Gal(b1-4)GlcNAc = biological target: Gal(a1-3)Gal(b1-4)GlcNAc
In short: as §1

[6] = biological target: Gal(a1-3)Gal(b1-4)GlcNAc(b1-2)Man
In short: as §1

[7] = biological target: Gal(a1-3)Gal(b1-4)GlcNAc(b1-2)Man(a1-3)[Gal(a1-3)Gal(b1-4)GlcNAc(b1-2)Man(a1-6)]Man(b1-4)GlcNAc(b1-4)GlcNAc
In short: as §1

[8] = biological target: Gal(a1-3)Gal(b1-4)GlcNAc(b1-3)GalNAc
In short: as §1

[9] = biological target: Gal(a1-3)Gal(b1-4)GlcNAc(b1-6)GalNAc
In short: as §1

[10] = biological target: Gal(a1-3)Gal(b1-4)[Fuc(a1-3)]GlcNAc
In short: as §1

[11] = biological target: Gal(a1-3)Gal(b1-4)[Fuc(a1-3)]GlcNAc(b1-2)Man(a1-3)[Gal(a1-3)Gal(b1-4)[Fuc(a1-3)]GlcNAc(b1-2)Man(a1-6)]Man(b1-4)GlcNAc(b1-4)GlcNAc
In short: as §1

Gal(a1-3)GalNAc = biological target: Gal(a1-3)GalNAc
In short: as §1

[12] = biological target: Gal(a1-3)[Gal(a1-4)]Gal(b1-4)GlcNAc
In short: as §1

[13] = biological target: Gal(a1-4)Gal(b1-3)GlcNAc(b1-2)Man(a1-3)[Gal(a1-4)Gal(b1-3)GlcNAc(b1-2)Man(a1-6)]Man(b1-4)GlcNAc(b1-4)GlcNAc
In short: as §1

Gal(a1-4)Gal(b1-4)Glc = biological target: Gal(a1-4)Gal(b1-4)Glc
In short: as §1

Gal(a1-4)Gal(b1-4)GlcNAc = biological target: Gal(a1-4)Gal(b1-4)GlcNAc
In short: as §1

[14] = biological target: Gal(a1-4)Gal(b1-4)GlcNAc(b1-2)Man(a1-3)[Gal(a1-4)Gal(b1-4)GlcNAc(b1-2)Man(a1-6)]Man(b1-4)GlcNAc(b1-4)GlcNAc
In short: as §1

[15] = biological target: Gal(a1-4)Gal(b1-4)GlcNAc(b1-3)Gal(b1-4)Glc
In short: as §1

Gal(a1-4)GlcNAc = biological target: Gal(a1-4)GlcNAc
In short: as §1

Gal(a1-6)Glc = biological target: Gal(a1-6)Glc
In short: as §1

Gal(b1-2)Gal = biological target: Gal(b1-2)Gal
In short: as §1

Gal(b1-3)Gal = biological target: Gal(b1-3)Gal
In short: as §1

Gal(b1-3)Gal(b1-4)GlcNAc = biological target: Gal(b1-3)Gal(b1-4)GlcNAc
In short: as §1

Gal(b1-3)GalNAc = biological target: Gal(b1-3)GalNAc
In short: as §1

[16] = biological target: Gal(b1-3)GalNAc(a1-3)[Fuc(a1-2)]Gal(b1-4)Glc
In short: as §1

[17] = biological target: Gal(b1-3)GalNAc(a1-3)[Fuc(a1-2)]Gal(b1-4)GlcNAc
In short: as §1

Gal(b1-3)GalNAc(b1-3)Gal = biological target: Gal(b1-3)GalNAc(b1-3)Gal
In short: as §1

[18] = biological target: Gal(b1-3)GalNAc(b1-3)Gal(a1-4)Gal(b1-4)Glc
In short: as §1

[19] = biological target: Gal(b1-3)GalNAc(b1-4)Gal(b1-4)Glc
In short: as §1

[20] = biological target: Gal(b1-3)GalNAc(b1-4)[Neu5Ac(a2-3)]Gal(b1-4)Glc
In short: as §1

Gal(b1-3)GlcNAc = biological target: Gal(b1-3)GlcNAc
In short: as §1

[21] = biological target: Gal(b1-3)GlcNAc(a1-3)Gal(b1-4)GlcNAc
In short: as §1

[22] = biological target: Gal(b1-3)GlcNAc(a1-6)Gal(b1-4)GlcNAc
In short: as §1

Gal(b1-3)GlcNAc(b1-2)Man = biological target: Gal(b1-3)GlcNAc(b1-2)Man
In short: as §1

[23] = biological target: Gal(b1-3)GlcNAc(b1-2)Man(a1-3)[Gal(b1-3)GlcNAc(b1-2)Man(a1-6)]Man(b1-4)GlcNAc(b1-4)GlcNAc
In short: as §1

B1: EUL D1A first (Oryza sativa) (protein)
chain: MFGFGHHHNQAPAAPSDPNQIFKIFCRANENYCLTVRDSAVVLAPVNPKDEHQHWFKDMRFSTKVKDGEGMPAFALVNKATGLAVKHSLGQSHPVKLVPFNPEYEDASVLWTESKDVGKGFRCIRMVNNTRLNLDAFHGDKDHGGVRDGTTVVLWEWCKGDNQSWKILPWGPEAHSSSPGAATILEQKLISEEDLNSAVDHHHHHH
With B1 the “glycan array binding signal (z-score)” value (Gal(a1-3)Gal(b1-3)GlcNAc) was -0.691, the “glycan array binding signal (z-score)” value [1] was -0.994 and the “glycan array binding signal (z-score)” value [2] was 3.31. The “glycan array binding signal (z-score)” value [3] was 0.676, the “glycan array binding signal (z-score)” value [4] was 0.341 and the “glycan array binding signal (z-score)” value [5] was 0.805. For the same binder, the “glycan array binding signal (z-score)” value (Gal(a1-3)Gal(b1-4)Glc) was 0.141, the “glycan array binding signal (z-score)” value (Gal(a1-3)Gal(b1-4)GlcNAc) was -0.008 and the “glycan array binding signal (z-score)” value [6] was -0.173. For the same binder, the “glycan array binding signal (z-score)” value [7] was -0.282, the “glycan array binding signal (z-score)” value [8] was -0.604 and the “glycan array binding signal (z-score)” value [9] was -0.214. For the same binder, the “glycan array binding signal (z-score)” value [10] was -0.411, the “glycan array binding signal (z-score)” value [11] was 1.55 and the “glycan array binding signal (z-score)” value (Gal(a1-3)GalNAc) was -0.91. For the same binder, the “glycan array binding signal (z-score)” value [12] was -0.456, the “glycan array binding signal (z-score)” value [13] was 2.2 and the “glycan array binding signal (z-score)” value (Gal(a1-4)Gal(b1-4)Glc) was 0.4. The “glycan array binding signal (z-score)” value (Gal(a1-4)Gal(b1-4)GlcNAc) was 0.261, the “glycan array binding signal (z-score)” value [14] was -0.21 and the “glycan array binding signal (z-score)” value [15] was 0.024. The “glycan array binding signal (z-score)” value (Gal(a1-4)GlcNAc) was -0.638, the “glycan array binding signal (z-score)” value (Gal(a1-6)Glc) was 0.718 and the “glycan array binding signal (z-score)” value (Gal(b1-2)Gal) was 0.765. For the same binder, the “glycan array binding signal (z-score)” value (Gal(b1-3)Gal) was -0.947, the “glycan array binding signal (z-score)” value (Gal(b1-3)Gal(b1-4)GlcNAc) was 0.168 and the “glycan array binding signal (z-score)” value (Gal(b1-3)GalNAc) was -0.735. For the same binder, the “glycan array binding signal (z-score)” value [16] was -1.67, the “glycan array binding signal (z-score)” value [17] was 1.02 and the “glycan array binding signal (z-score)” value (Gal(b1-3)GalNAc(b1-3)Gal) was -0.277. The “glycan array binding signal (z-score)” value [18] was -0.207, the “glycan array binding signal (z-score)” value [19] was 0.305 and the “glycan array binding signal (z-score)” value [20] was -0.052. The “glycan array binding signal (z-score)” value (Gal(b1-3)GlcNAc) was -0.766, the “glycan array binding signal (z-score)” value [21] was 0.125 and the “glycan array binding signal (z-score)” value [22] was -0.2. For the same binder, the “glycan array binding signal (z-score)” value (Gal(b1-3)GlcNAc(b1-2)Man) was 0.139 and the “glycan array binding signal (z-score)” value [23] was -0.317.
